Assay results as given in the supplement of paper PMC3334620.
Over roughly 33,000 sequences, “E-score (-0.5 to 0.5)” has its median near -0.0014; the highest 2% begin near 0.25. Some of the results follow.

biological target: T1, Cad1 (UniProt P24813); assay: PBM E-score (8-mer binding enrichment) (E-score (-0.5 to 0.5)); higher = stronger / more preferred TF binding; settings: protein concentration: 100 nM; construct: GST-full length
T1 sequence: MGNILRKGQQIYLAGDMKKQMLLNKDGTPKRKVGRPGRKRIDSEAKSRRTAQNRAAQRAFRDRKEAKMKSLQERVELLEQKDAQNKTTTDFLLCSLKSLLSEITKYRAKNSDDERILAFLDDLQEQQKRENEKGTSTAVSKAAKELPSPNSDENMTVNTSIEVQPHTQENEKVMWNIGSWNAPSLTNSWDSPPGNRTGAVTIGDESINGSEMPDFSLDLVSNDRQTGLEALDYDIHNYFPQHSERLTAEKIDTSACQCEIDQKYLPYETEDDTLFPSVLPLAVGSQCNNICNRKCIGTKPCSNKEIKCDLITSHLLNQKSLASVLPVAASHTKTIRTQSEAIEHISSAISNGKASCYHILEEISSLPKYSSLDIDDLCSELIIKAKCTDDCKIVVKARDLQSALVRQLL
Summary of the method: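 Full-length yeast transcription factors or their DNA-binding domains, GST-tagged and expressed with PURExpress, were applied at about 100-200 nM to universal all-10-mer Agilent arrays. These arrays had been made double-stranded by primer extension on fresh or once-stripped slides. Detection used fluorescent anti-GST, normalisation used masliner, and E-scores for ungapped eight-base words pooled with reverse complements came from the Universal PBM Analysis Suite.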

In order of rising “PBM E-score” value:
1. CCCAAGGG  -0.395
2. AGAGCCCC  -0.35
3. CCCCACCG  -0.32
4. CCTACGCC  -0.297
5. AGCCTCTG  -0.281
6. GCCGAAGC  -0.271
7. CGGGCATC  -0.267
8. ACCTCCCA  -0.257
9. ACCCTTGG  -0.251
10. GGGTCACA  -0.233
11. CAGGCCTC  -0.226
12. CTAGAGGC  -0.226
13. TAGTGGGA  -0.225
14. AGCGGTCG  -0.208
15. ACCAGCCA  -0.206
16. ACCCGGGG  -0.19
17. AGCCCCAG  -0.187
18. CCGTAGAG  -0.186
19. GGACGGGA  -0.181
20. CACCATTC  -0.173
21. AGCGAAAG  -0.172
22. ATGCCCAG  -0.162
23. GACTTCCC  -0.145
24. GCGAAGAC  -0.143
25. ACGGGAGA  -0.143
26. AGGAGTAC  -0.141
27. ATAGAAGA  -0.136
28. TACACGCA  -0.123
29. ATCGGCCA  -0.114
30. ACAAGTCA  -0.114
31. AGCAAGGC  -0.112
32. ATATTGGA  -0.111
33. TCCAGCCA  -0.105
34. AACTTGCT  -0.105
35. AGTGACGC  -0.104
36. GTAGACGA  -0.103
37. AGAATGTC  -0.102
38. CCTGTTCC  -0.0993
39. ACCTGGAG  -0.099
40. AACACCTC  -0.0988
41. CATTGCAA  -0.0981
42. CCTTGCAA  -0.097
43. AGTCCGAA  -0.0964
44. TCGAAGCA  -0.0922
45. AGATGCTA  -0.091
46. ATGTTCTA  -0.0863
47. GTTCCTGA  -0.0824
48. GCAAATGA  -0.0799
49. GCTCGACA  -0.0745
50. ACCGGGAC  -0.073
51. CCCAAAGA  -0.0725
52. AACTGCTA  -0.0703
53. GTTCACCA  -0.067
54. CGTTCTTC  -0.0653
55. ATCTTGTA  -0.0635
56. GACGACGC  -0.0628
57. GATATTGC  -0.0626
58. GGGCAGTA  -0.0606
59. GCTTAACC  -0.0586
60. AGAGCGAG  -0.0569
61. CCCAACCA  -0.0542
62. AATTCATC  -0.0519
63. AAGTGATC  -0.0506
64. ACACTTGA  -0.0504
65. CTCGGTCA  -0.0426
66. AGATTTCA  -0.0418
67. CGTCGCAC  -0.0397
68. GACGTGAC  -0.0386
69. CTCGCCCA  -0.0333
70. GAAAACCC  -0.0328
71. ATCACGCC  -0.0305
72. AACCACTA  -0.028
73. GAAAGTAC  -0.0278
74. ACATCCAT  -0.0237
75. GGTACAAA  -0.0202
76. GGAGCGAA  -0.0168
77. ACAGGTTA  -0.015
78. TGCAGGCA  -0.0106
79. CCGAGCCA  -0.0105
80. GATCTAGA  -0.00886
81. AACATGGG  -0.00868
82. TACTGCAA  -0.00783
83. ATAGTTGG  -0.00716
84. AACTAAGA  -0.00681
85. GCGAGAGC  -0.00302
86. CCATAGCG  -0.00195
87. CGGAAGTA  0.00016
88. GTATTTGA  0.00258
89. ATGACAGG  0.00398
90. ATACGTCA  0.00668
91. ATGTCCAA  0.00741
92. CTCGATGA  0.00953
93. AACAAGGC  0.00964
94. GACGATAC  0.00972
95. ACCCAGAT  0.0101
96. AGCCTTCA  0.0108
97. AATGAGCA  0.012
98. AGGACGAA  0.0126
99. TATTAAGA  0.0149
100. CGCATCGA  0.023
101. AGCCAGCT  0.0239
102. GACAGTGA  0.0252
103. CGGACGTC  0.026
104. ACATAGGT  0.0292
105. TATGCTCA  0.0318
106. ACCAATGA  0.0394
107. ACGGGATG  0.0427
108. CACGTACC  0.044
109. CCACATAC  0.0512
110. CAGGTGTC  0.0539
111. CGCCATAA  0.0576
112. AGACAATA  0.0599
113. ATCTATTC  0.0621
114. CACGATTC  0.0636
115. ATGGCATC  0.0656
116. TATCACCA  0.0661
117. AATAAGAG  0.0662
118. CGAAAGAG  0.0669
119. ACACGTGG  0.0688
120. CCGTCTCG  0.0704
121. TGCGTAAA  0.0705
122. GTGCCGGA  0.0729
123. ATTCAAAC  0.073
124. TACAGTGA  0.0738
125. GAAAGCGA  0.0779
126. CGCTAAAC  0.0788
127. CGCATAAC  0.0795
128. TCAGGAAA  0.0803
129. GATAATAA  0.0805
130. CCAATCGC  0.0869
131. ACACAATA  0.0881
132. AATTTGCT  0.0891
133. GGCATAAC  0.0911
134. AGGTGCCG  0.0918
135. CGCTTTTA  0.0966
136. CGGTACGC  0.0976
137. GTGACGAA  0.0988
138. GCTGTGAA  0.0992
139. ATAAGTCC  0.0997
140. CTGTCGGA  0.101
141. AGTGCAGC  0.101
142. AATGCCGT  0.107
143. CGTGTCAC  0.109
144. TAAGCCAA  0.109
145. GAGTAAGA  0.111
146. CAAATGCA  0.113
147. AAACTTGC  0.114
148. ATTACGTC  0.118
149. AATTGCCA  0.124
150. ATCACGGC  0.126
151. CAGTAAGC  0.132
152. GAGAACAC  0.15
153. AGTAGTCG  0.152
154. TACGGACA  0.154
155. GAACCACA  0.154
156. TAAAGCAA  0.161
157. TAGTATGA  0.162
158. TATTCCGA  0.176
159. GATTACGC  0.182
160. CGAAACAC  0.188
161. CATTATCA  0.19
162. ACACACCA  0.198
163. AAATGCAT  0.198
164. GACCAACA  0.201
165. TCATAGAA  0.206
166. ACCGCTAA  0.212
167. AATATGAT  0.247
168. AATTTAAT  0.252
169. ACGATCGA  0.254
170. ATTGTCCG  0.271
171. AATTTTAT  0.295
172. GCATCATA  0.296
